Data taken from US20220332759A1, “TARGETED PULMONARY DELIVERY COMPOSITIONS AND METHODS USING SAME” (Rutgers, The State University of New Jersey, priority 2019, published 2022).
These are yes or no findings as the source states them, for the method shown. Some results given as binding are weak or reduced against the parent protein; the word gives no strength.

Protein sequences, listed by entry. Tags and fused reporters are not part of them. Lines headed by an entry give the natural chain unless they say otherwise; changes in a name come on top.
UniProt P26006: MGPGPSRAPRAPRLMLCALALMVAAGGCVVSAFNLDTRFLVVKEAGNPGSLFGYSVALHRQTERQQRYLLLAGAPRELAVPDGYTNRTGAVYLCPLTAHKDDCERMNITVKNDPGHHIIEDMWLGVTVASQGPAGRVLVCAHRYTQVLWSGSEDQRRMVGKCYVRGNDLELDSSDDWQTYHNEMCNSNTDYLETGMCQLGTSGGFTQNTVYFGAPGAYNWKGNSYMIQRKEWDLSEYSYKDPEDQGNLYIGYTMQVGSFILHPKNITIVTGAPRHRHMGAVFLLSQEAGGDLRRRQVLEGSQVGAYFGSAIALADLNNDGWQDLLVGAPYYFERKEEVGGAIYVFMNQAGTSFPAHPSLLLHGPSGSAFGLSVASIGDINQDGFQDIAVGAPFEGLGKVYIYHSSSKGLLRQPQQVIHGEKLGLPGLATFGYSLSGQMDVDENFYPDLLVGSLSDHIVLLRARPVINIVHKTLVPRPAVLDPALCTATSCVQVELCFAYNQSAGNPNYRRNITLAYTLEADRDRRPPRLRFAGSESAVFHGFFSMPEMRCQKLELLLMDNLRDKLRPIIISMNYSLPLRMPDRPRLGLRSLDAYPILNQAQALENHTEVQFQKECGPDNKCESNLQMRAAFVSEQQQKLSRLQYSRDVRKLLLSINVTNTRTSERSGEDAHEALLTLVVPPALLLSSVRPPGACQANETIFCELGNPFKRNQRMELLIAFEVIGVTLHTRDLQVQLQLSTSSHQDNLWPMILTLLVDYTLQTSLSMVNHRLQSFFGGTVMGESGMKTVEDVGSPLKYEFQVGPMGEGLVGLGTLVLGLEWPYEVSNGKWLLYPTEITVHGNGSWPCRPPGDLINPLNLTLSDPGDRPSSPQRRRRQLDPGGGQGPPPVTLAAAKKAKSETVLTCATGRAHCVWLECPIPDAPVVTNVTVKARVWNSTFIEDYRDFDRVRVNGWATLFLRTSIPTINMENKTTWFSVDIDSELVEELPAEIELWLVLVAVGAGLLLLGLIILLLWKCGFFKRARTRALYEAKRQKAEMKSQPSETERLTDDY
UniProt P05556: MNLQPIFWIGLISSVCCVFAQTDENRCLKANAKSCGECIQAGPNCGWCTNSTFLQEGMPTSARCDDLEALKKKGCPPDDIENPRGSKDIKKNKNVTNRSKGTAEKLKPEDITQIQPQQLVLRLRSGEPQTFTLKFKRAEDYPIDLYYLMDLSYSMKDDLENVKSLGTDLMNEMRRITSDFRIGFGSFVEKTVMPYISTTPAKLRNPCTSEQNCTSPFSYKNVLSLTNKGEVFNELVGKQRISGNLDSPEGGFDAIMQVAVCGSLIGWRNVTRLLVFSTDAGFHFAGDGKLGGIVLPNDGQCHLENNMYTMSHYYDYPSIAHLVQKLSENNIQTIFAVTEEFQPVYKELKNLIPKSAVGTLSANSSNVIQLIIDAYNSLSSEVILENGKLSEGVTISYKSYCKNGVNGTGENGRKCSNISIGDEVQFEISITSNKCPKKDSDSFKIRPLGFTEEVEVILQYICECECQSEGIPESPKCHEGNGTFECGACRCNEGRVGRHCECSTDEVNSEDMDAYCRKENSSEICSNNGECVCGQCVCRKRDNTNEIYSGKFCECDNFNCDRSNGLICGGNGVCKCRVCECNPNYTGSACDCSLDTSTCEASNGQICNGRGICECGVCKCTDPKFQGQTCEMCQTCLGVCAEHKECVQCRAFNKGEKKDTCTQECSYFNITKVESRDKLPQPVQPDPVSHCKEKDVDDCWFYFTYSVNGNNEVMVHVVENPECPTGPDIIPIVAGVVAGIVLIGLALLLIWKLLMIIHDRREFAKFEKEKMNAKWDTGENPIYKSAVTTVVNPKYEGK
UniProt Q62470: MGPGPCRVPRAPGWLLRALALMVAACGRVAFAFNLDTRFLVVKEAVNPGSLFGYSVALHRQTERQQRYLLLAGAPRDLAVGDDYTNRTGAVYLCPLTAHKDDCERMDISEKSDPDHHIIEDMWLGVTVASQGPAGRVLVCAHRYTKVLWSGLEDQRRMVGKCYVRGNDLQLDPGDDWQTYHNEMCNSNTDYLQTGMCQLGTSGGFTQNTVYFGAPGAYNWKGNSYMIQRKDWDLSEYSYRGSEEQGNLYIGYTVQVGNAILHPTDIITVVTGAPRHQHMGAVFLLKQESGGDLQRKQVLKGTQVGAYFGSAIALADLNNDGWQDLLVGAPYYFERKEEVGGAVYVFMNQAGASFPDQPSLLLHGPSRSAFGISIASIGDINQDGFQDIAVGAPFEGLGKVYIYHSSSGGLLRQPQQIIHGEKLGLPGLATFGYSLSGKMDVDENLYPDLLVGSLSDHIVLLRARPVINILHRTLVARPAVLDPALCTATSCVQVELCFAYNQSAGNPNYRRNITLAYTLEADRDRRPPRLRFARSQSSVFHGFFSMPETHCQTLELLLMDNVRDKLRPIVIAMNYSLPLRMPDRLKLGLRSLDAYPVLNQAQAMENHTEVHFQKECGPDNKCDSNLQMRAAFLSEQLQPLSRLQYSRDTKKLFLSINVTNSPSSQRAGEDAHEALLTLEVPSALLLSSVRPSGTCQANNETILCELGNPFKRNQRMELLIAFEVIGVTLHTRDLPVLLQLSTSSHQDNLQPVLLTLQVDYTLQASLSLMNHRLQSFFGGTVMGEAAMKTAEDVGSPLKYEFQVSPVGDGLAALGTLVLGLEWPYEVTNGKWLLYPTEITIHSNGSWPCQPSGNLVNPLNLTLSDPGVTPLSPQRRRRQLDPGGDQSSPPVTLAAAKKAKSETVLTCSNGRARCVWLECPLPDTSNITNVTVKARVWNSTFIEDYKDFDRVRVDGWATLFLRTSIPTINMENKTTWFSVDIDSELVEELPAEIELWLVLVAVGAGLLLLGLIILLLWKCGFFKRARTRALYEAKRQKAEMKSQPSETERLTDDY
UniProt P09055: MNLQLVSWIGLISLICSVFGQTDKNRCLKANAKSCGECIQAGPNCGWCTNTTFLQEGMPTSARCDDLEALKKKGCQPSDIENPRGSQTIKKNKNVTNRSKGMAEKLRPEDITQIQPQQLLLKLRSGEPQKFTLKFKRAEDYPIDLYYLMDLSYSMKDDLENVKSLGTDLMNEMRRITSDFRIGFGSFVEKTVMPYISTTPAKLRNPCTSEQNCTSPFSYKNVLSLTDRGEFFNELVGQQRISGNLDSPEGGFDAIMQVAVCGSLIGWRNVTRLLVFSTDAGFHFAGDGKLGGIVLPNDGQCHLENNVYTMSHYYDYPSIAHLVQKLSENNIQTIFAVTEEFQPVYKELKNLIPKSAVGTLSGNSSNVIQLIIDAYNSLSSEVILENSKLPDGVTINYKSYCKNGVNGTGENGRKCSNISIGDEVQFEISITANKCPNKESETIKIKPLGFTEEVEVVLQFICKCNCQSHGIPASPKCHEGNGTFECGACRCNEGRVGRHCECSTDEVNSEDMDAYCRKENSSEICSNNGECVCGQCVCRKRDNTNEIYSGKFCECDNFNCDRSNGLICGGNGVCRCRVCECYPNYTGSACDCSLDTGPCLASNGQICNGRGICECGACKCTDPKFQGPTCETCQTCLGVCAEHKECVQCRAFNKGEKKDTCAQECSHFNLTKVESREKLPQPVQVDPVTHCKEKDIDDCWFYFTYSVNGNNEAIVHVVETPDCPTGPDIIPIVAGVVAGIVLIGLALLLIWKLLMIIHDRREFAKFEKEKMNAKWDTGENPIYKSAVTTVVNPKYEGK

Columns and labels:
[1] = molecular target: T1, human recombinant α3β1 integrin (human, UniProt P26006 33-991; P05556 21-728); test: phage binding to immobilised recombinant protein (FIG. 3A)
T1 construct: Bought protein, 100 ng immobilised in microtiter wells; also called α3β1 integrins

[2] = molecular target: T2, mouse α3β1 integrin expressed on the plasma membrane of AT1 and AT2 alveolar epithelial cells and club cells (mouse) (UniProt Q62470+P09055); test: immunofluorescence of mouse lung sections after aerosol administration of phage (FIGS. 4A-4F)
[3] = molecular target: T2, mouse α3β1 integrin expressed on the plasma membrane of AT1 and AT2 alveolar epithelial cells and club cells (mouse); test: immunofluorescence co-localisation in mouse lung sections
[4] = molecular target: T2, mouse α3β1 integrin expressed on the plasma membrane of AT1 and AT2 alveolar epithelial cells and club cells (mouse); test: confocal immunofluorescence of mouse lung sections after aerosol administration
[5] = molecular target: T1, human recombinant α3β1 integrin; test: cell-free phage binding to immobilised recombinant proteins, relative TU
[6] = molecular target: T2, mouse α3β1 integrin expressed on the plasma membrane of AT1 and AT2 alveolar epithelial cells and club cells (mouse); test: TU count of phage recovered from flow-sorted mouse lung cells after aerosol administration
[7] = molecular target: T3, endogenous α3β1 integrins expressed on the surface of human alveolar epithelial adenocarcinoma cells (A549) (human) (UniProt P26006+P05556); test: summary of A549 binding and Transwell assays
[8] = molecular target: T3, endogenous α3β1 integrins expressed on the surface of human alveolar epithelial adenocarcinoma cells (A549) (human); test: BRASIL phage binding on A549 cells carrying endogenous α3β1
[9] = molecular target: T2, mouse α3β1 integrin expressed on the plasma membrane of AT1 and AT2 alveolar epithelial cells and club cells (mouse); test: flow sorting of mouse lung cells after aerosol administration of phage, TU count (FIGS. 5A-5B)

Measured: binding

CAKSMGDIVC (peptide, not shown: large carriers, cyclic peptide (CX8C insert) (so in the source)) [targeted …-displaying phage particles]
binds: all assays above
